The experiment concerns the target NF-κB p65 subunit (endogenous, HEK-293T cells), Q04206. In words: Co-IP from transfected HEK-293T cells, endogenous NF-κB subunits. The note with it: remark: other sources report otherwise.

Results are given in words; binding and its absence hold for the method and conditions named. In cells and extracts the contact can be indirect. Some binding calls cover weakened binding; strength is not graded here.

B1: IκBα wild type (SEQ ID NO: 4), P25963 1-317 (protein, not shown: small tags and cut ends)
chain: MFQAAERPQEWAMEGPRDGLKKERLLDDRHDSGLDSMKDEEYEQMVKELQEIRLEPQEVPRGSEPWKQQLTEDGDSFLHLAIIHEEKALTMEVIRQVKGDLAFLNFQNNLQQTPLHLAVITNQPEIAEALLGAGCDPELRDFRGNTPLHLACEQGCLASVGVLTQSCTTPHLHSILKATNYNGHTCLHLASIHGYLGIVELLVSLGADVNAQEPCNGRTALHLAVDLQNPDLVSLLLKCGADVNRVTYQGYSPYQLTWGRPSTRIQQQLGQLTLENLQMLPESEDEESYDTESEFTEFTEDELPYDDCVFGGQRLTL
For B1, the binding entry was “binds”.

(Values after patent EP4239334A1.)
